According to publication PMC12520468:

Molecular target: RPL6 (purified) (UniProt Q02878)
Assay: EMSA
Conditions: REMSA: LightShift Chemiluminescent RNA EMSA kit, 8% polyacrylamide, pH and temperature not stated; recombinant protein; label: biotin; probe letters rebuilt from the primers and the genome; part of a longer molecule

GCGGACUGUCCUUUCGUGGCUCACUCCCUUUCCUCUGCUGCCGCUCGGUCACGCUUGUGCCCGAAGGAGGAAACAGUGACAGACCUGGAGACUGCAGUUCUCUAUCCUUCACACAGCUCUUUCACC [HMGCS1 5'UTR]
binding result: no binding

The exact form of at least one protein or probe is not confirmed. A negative result means that nothing was seen under these conditions.
